# Results reported in PubChem BioAssay AID445 (National Center for Advancing Translational Sciences (NCATS), 2006).
# The list shows a part of the results. Further columns of the screen follow, without active or inactive calls. The list favours compounds with an active or inconclusive main result. Potencies come from curve fits of mixed quality, noted in brackets.
# Assay: IkB Signaling
# Details: ABC-DLBCL IkBa-CBG/CBR dual luciferase ratio (green luciferase fused to IkBa over red control in OCI-Ly3 lymphoma cells), 4 h
# How it was run: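 Curves were fitted separately to fusion (green), unfused (red) and ratio luminescence, then classed by r2, magnitude and activity. Cells: OCI-Ly3, 4 h compound plus doxycycline at 37C; 10 uM MG-132 defined full response.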
# [1] = measured here: control luc red channel unless noted
structure (smiles),measurement,setting,value
O=C(Nc1ccc(-c2nc3ccccc3o2)c(O)c1)c1cc(-n2cnnc2)ccc1Cl,AC50,[1],"10 µM [falling, partial curve]"
O=C(NCc1ccccc1Cl)c1cnc(N2CCOCC2)c2ccccc12,AC50,[1],"39.8 µM [falling, single point]"
Cc1ccc2cccc(NC(=O)c3cccc4c(Cl)cccc34)c2n1,AC50,[1],"31.6 µM [rising, single point]"
Cc1ccc(C)c(N2CCN(C(=O)CCNS(=O)(=O)c3ccc4c(c3)CCN4C(=O)C3CC3)CC2)c1,AC50,[1],"39.8 µM [falling, single point]"
COc1ccc(S(=O)(=O)N2CN(Cc3ccco3)c3nc4ccccc4nc32)cc1,AC50,[1],"3.98 µM [falling, full curve]"
COc1ccc(Br)cc1C(=O)Nc1cccc(NC(=O)c2ccco2)c1,AC50,[1],"5.01 µM [falling, partial curve]"
Cc1ccc(C(=O)N2CCc3cc(CNC(=O)c4ccc(Br)cc4)ccc32)cc1,AC50,[1],"2.51 µM [falling, partial curve]"
FC(F)(F)c1cc(-c2ccccc2)nc(NCC2CCCO2)n1 (configuration not stated),AC50,[1],"20 µM [falling, partial curve]"
COc1ccccc1C(=O)Nc1cccc(-c2cn3ccsc3n2)c1,AC50,[1],"20 µM [falling, partial curve]"
COc1ccc(S(=O)(=O)N2CCN(Cc3ccc4c(c3)OCO4)CC2)cc1C,AC50,[1],"7.94 µM [falling, partial curve]"
CCOC(=O)c1cnc2c(Cl)cc(Cl)cc2c1Nc1cc(C(=O)O)ccc1C,AC50,[1],"12.6 µM [falling, partial curve]"
Cc1c(Cl)cccc1NC(=O)CNS(=O)(=O)c1cccs1,AC50,[1],"39.8 µM [rising, single point]"
CCOc1ccc2c(c1)sc1nc(=O)n(-c3ccc(Cl)c(Cl)c3)c(=O)n12,AC50,[1],"39.8 µM [rising, single point] [measured here: IkB-luc green channel]"
Cc1ccc(OCc2nc(-c3ccc(C(=O)N4CCN(c5cccc(C(F)(F)F)c5)CC4)cc3)oc2C)cc1,AC50,[1],"20 µM [falling, partial curve]"
CCOC(=O)CCn1cnc2onc(-c3cc(OC)ccc3Cl)c2c1=O,AC50,[1],"31.6 µM [falling, single point]"
COc1ccc(N(CC(C)C)S(=O)(=O)c2nnc(NC(=O)c3cccs3)s2)cc1,AC50,[1],"25.1 µM [falling, single point]"
C/C=C/c1ccc(Oc2nnnn2-c2ccc(C(=O)O)cc2)c(OC)c1,AC50,[1],"31.6 µM [falling, partial curve]"
Cc1cccc(-n2ncc(C(=O)N3CCN(Cc4ccccc4)CC3)c2C2CCN(C(=O)OC(C)(C)C)CC2)c1,AC50,[1],"12.6 µM [falling, partial curve]"
CCn1c(CNC(C)=O)nnc1SCC(=O)c1ccc(Br)cc1,AC50,[1],"39.8 µM [rising, single point] [measured here: IkB-luc green channel]"
CCOc1ccccc1NC(=O)N1c2ccccc2Sc2ccccc21,AC50,[1],"2.51 µM [rising, single point]"
O=C(Cn1ncn2nc(-c3cccs3)cc2c1=O)NCc1ccc(Cl)cc1,AC50,[1],"1 µM [rising, partial curve]"
Cc1oc(-c2cccc(Cl)c2)nc1CN1CCCC(C(=O)NCCc2ccc(Cl)cc2)C1 (configuration not stated),AC50,[1],"12.6 µM [falling, partial curve]"
CC(C)CNC(=O)C(=O)Nc1c2c(nn1-c1ccccc1)CS(=O)(=O)C2,AC50,[1],"20 µM [rising, single point]"
O=C(Nc1ccc2c(c1)OCCO2)C1CCN(S(=O)(=O)c2ccc(Br)s2)CC1,AC50,[1],"12.6 µM [falling, partial curve]"
CC(=O)Nc1cc(C(=O)NCc2ccc(C)cc2)ccc1S(=O)(=O)c1ccc(Cl)cc1,AC50,[1],"25.1 µM [falling, single point]"
CCOC(=O)CN1C(C(=O)c2ccccc2)=C(OC(=O)C(C)(C)C)c2ccccc2S1(=O)=O,AC50,[1],"31.6 µM [falling, single point]"
Cc1cccc(-n2nnc(C(=O)NC3CCCc4ccccc43)c2N)c1 (configuration not stated),AC50,[1],"6.31 µM [falling, partial curve]"
Cc1ccc(OCC(=O)NCc2ccco2)cc1C,AC50,[1],"12.6 µM [falling, partial curve]"
N#CC1=C(N)SC(N)=C(C#N)C1c1c(Cl)cccc1Cl,AC50,[1],"25.1 µM [rising, partial curve] [measured here: IkB-luc green channel]"
Cc1cc(Br)ccc1NC(=O)C1CCCN(S(=O)(=O)c2cccc3nonc23)C1 (configuration not stated),AC50,[1],"39.8 µM [falling, single point]"
Cc1ccc(CNC(=O)C2CCN(S(=O)(=O)c3cccc4nonc34)CC2)cc1,AC50,[1],"0.398 µM [rising, full curve]"
COc1ccccc1NC(=O)CSc1nnc(NC(=O)NC2CCCCC2)s1,AC50,[1],"31.6 µM [falling, single point]"
COc1ccccc1/C=C/c1nc(C#N)c(N2CCN(C)CC2)o1,AC50,[1],"7.94 µM [falling, partial curve]"
COc1ccc(C(=O)N2CCC(c3nc4ccccc4s3)CC2)cc1Cl,AC50,[1],"20 µM [falling, partial curve]"
CC(=O)[C@H](CC(C)C)NC(=O)[C@@H](CC(C)C)NC(=O)[C@H](CC(C)C)NC(=O)OCc1ccccc1,AC50,measured here: IkB-luc green channel,"1.58 µM [rising, full curve]"
same,AC50,measured here: control luc red channel,"1 µM [falling, full curve, poor fit]"
CCc1ccc(NCc2cc3cc4c(cc3n(CC(=O)Nc3ccccc3OC)c2=O)OCCO4)cc1,AC50,[1],"7.94 µM [falling, partial curve]"
COc1cc(C(=O)Nc2ccc3c(c2)OCCO3)ccc1OC(F)F,AC50,[1],"39.8 µM [falling, single point]"
Cc1ccc(S(=O)(=O)CCC(=O)Nc2ccc(OC(F)(F)F)cc2)cc1,AC50,[1],"20 µM [falling, single point]"
CCC(Sc1nc2ccncc2[nH]1)C(=O)Nc1cc(Cl)ccc1C (configuration not stated),AC50,[1],"15.8 µM [falling, partial curve]"
CC1(C)CC(=O)C=C(Nc2cc(-c3ccccc3)[nH]n2)C1,AC50,[1],"6.31 µM [falling, partial curve]"
CCN(c1ccccc1)S(=O)(=O)c1nnc(NC(=O)c2ccccc2)s1,AC50,[1],"0.0794 µM [rising, full curve]"
O=C(Nc1ccccc1)N(Cc1c[nH]c2ccccc12)C1CCCCCC1,AC50,[1],"3.98 µM [falling, partial curve]"
O=C1CN(CC(=O)N2CCOCC2)c2ccccc2O1,AC50,[1],"1.58 µM [falling, full curve]"
Cc1cccc(OCc2nc(CC(=O)Nc3ccc(C)cc3C)cs2)c1,AC50,[1],"12.6 µM [falling, single point]"
Cc1cccc(N2CCN(C(=O)c3cnn(-c4ccccc4Cl)c3C3CCN(C(=O)OC(C)(C)C)CC3)CC2C)c1 (configuration not stated),AC50,[1],"39.8 µM [falling, single point]"
CCc1ccc(C2c3c(oc4ccc(F)cc4c3=O)C(=O)N2CCc2ccc(OC)cc2)cc1 (configuration not stated),AC50,[1],"5.01 µM [falling, partial curve]"
CCOC(=O)c1c(N)n(CCOC(=O)c2cccs2)c2nc3ccccc3nc12,AC50,[1],"12.6 µM [falling, partial curve]"
Cc1ccc(CNC(=O)Cn2c(=O)ccc3cc(S(=O)(=O)N4CCC(C)CC4)ccc32)cc1,AC50,[1],"0.1 µM [falling, full curve, poor fit]"
O=C(Nc1ccccc1C(F)(F)F)c1cc(-c2ccc3c(c2)OCCO3)on1,AC50,[1],"31.6 µM [falling, single point]"
CCN(CC)CCNC(=O)C(=O)NCC(c1cccnc1)N1CCN(c2ccc(F)cc2)CC1 (configuration not stated),AC50,[1],"20 µM [falling, partial curve]"
COc1ccc2cc3cc(C(=O)Nc4cc(C)c(Cl)cc4OC)oc3nc2c1,AC50,[1],"0.501 µM [falling, full curve]"
CCc1cccc(CC)c1NC(=O)C1CCC(CNS(=O)(=O)c2cccc3nsnc23)CC1 (configuration not stated),AC50,[1],"31.6 µM [falling, partial curve]"
CC(=O)c1cccc(NS(=O)(=O)c2cc(-c3onc(C)c3C)ccc2C)c1,AC50,[1],"39.8 µM [falling, single point]"
Cc1sc2c(c1C)c(=O)n(-c1ccc(Cl)cc1)c(=O)n2Cc1cc(=O)n2cc(Br)ccc2n1,AC50,[1],"0.2 µM [falling, full curve, poor fit]"
CCOC(=O)c1c(S(=O)(=O)N2CCCC(C(=O)NCc3ccccc3Cl)C2)c(C)n(C)c1C (configuration not stated),AC50,[1],"0.631 µM [rising, full curve]"
CCOC(=O)c1ccc(NC(=O)c2cccc(S(=O)(=O)N3CCOCC3)c2)cc1,AC50,[1],"5.01 µM [falling, full curve]"
CC(C)c1ccc(NC(=O)CN2C(=O)CCc3cc(S(=O)(=O)N4CCOCC4)ccc32)cc1,AC50,[1],"12.6 µM [falling, partial curve]"
COc1ccc(S(=O)(=O)NCCc2sc(-c3cccc(F)c3)nc2C)cc1,AC50,[1],"31.6 µM [falling, partial curve, poor fit]"
CC(C)c1ccc(NC(=O)c2ccc(F)c(S(=O)(=O)N3CCN(c4ccccc4F)CC3)c2)cc1,AC50,[1],"5.01 µM [falling, partial curve]"
COc1ccccc1N1CCN(C(=O)CSc2nnc3n2C(C)(C)Cc2ccccc2-3)CC1,AC50,[1],"12.6 µM [falling, partial curve]"
Cc1ccc(C(=O)/C=C/c2cn(CC(O)CN3CCCCCC3)c3ccccc23)cc1 (configuration not stated),AC50,[1],"12.6 µM [falling, partial curve]"

# Shown as tab-separated lines: entries from further up.
structure (smiles)	measurement	setting	value
Cc1oc(-c2cccc(Cl)c2)nc1CN1CCCC(C(=O)NCCc2ccc(Cl)cc2)C1 (configuration not stated)	AC50	[1]	12.6 µM [falling, partial curve]
CC(C)CNC(=O)C(=O)Nc1c2c(nn1-c1ccccc1)CS(=O)(=O)C2	AC50	[1]	20 µM [rising, single point]
O=C(Nc1ccc2c(c1)OCCO2)C1CCN(S(=O)(=O)c2ccc(Br)s2)CC1	AC50	[1]	12.6 µM [falling, partial curve]
CC(=O)Nc1cc(C(=O)NCc2ccc(C)cc2)ccc1S(=O)(=O)c1ccc(Cl)cc1	AC50	[1]	25.1 µM [falling, single point]
CCOC(=O)CN1C(C(=O)c2ccccc2)=C(OC(=O)C(C)(C)C)c2ccccc2S1(=O)=O	AC50	[1]	31.6 µM [falling, single point]
